# Measurements reported in patent publication US20180080942A1.
# Results are given in words; binding and its absence hold for the method and conditions named. Some results given as binding are weak or reduced against the parent protein; the word gives no strength.
# B1: two SH2 domains of Src-homology 2 domain-containing phosphatase 2 (SHP-2 2SH2) (enzyme, UniProt Q06124 1-247, looked up)
# chain: MTSRRWFHPNITGVEAENLLLTRGVDGSFLARPSKSNPGDFTLSVRRNGAVTHIKIQNTGDYYDLYGGEKFATLAELVQYYMEHHGQLKEKNGDVIELKYPLNCADPTSERWFHGHLSGKEAEKLLTEKGKHGSFLVRESQSHPGDFVLSVRTGDDKGESNDGKSKVTHVMIRCQELKYDVGGGERFDSLTDLVEHYKKNPMVETLGTVLQLKQPLNTTRINAAEIESRVRELSKLAETTDKVKQGF
# Experiments:
# [1] = target: C-terminal cytoplasmic domain of natural killer cell immunoglobulin-like receptor KIR-3DL1, residues 340-423 (C-3DL1); experiment: 13C-detected CON NMR, free against complex
# [2] = target: C-terminal cytoplasmic domain of natural killer cell immunoglobulin-like receptor KIR-3DL1, residues 340-423 (C-3DL1); experiment: 13C-detected CON NMR, SHP-2 2SH2 at a molar fraction of 20%, 37 C
binder,measurement,setting,value
B1,binding,[1],binds
same,binding,[2],binds
